This is one part of the list.
Compound: Cc1cc(ccc1-c1ccccc1)C(=O)N1CCCN(CC1)C(=O)CCl [compound 10]
Assay: probe-labelled cysteine peptide fold change vs DMSO (competition) (log2 fold change); higher = less target engagement (more negative = stronger competition)
Conditions: THP-1, incubation time: 4 h
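Note: competitive profiling in live THP-1 cells: cysteine peptides tagged with an iodoacetamide desthiobiotin (IA-DTB) probe, intensity after compound treatment relative to DMSO-treated cells.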

Sequences of proteins named here, by UniProt entry; tags and fusion partners are left off. A change or cut given only in a name is not applied to a line headed by its entry.
UniProt Q15973: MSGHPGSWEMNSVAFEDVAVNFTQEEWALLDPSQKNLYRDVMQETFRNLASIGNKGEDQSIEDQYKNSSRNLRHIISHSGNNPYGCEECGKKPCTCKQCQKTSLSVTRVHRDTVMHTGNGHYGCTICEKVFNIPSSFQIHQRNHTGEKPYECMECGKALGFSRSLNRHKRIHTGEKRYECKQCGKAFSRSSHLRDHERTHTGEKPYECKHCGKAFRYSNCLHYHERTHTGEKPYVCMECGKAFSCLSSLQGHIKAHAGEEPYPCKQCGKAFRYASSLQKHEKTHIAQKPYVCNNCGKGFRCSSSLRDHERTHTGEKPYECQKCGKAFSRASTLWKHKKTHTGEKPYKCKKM
UniProt Q9UBW7: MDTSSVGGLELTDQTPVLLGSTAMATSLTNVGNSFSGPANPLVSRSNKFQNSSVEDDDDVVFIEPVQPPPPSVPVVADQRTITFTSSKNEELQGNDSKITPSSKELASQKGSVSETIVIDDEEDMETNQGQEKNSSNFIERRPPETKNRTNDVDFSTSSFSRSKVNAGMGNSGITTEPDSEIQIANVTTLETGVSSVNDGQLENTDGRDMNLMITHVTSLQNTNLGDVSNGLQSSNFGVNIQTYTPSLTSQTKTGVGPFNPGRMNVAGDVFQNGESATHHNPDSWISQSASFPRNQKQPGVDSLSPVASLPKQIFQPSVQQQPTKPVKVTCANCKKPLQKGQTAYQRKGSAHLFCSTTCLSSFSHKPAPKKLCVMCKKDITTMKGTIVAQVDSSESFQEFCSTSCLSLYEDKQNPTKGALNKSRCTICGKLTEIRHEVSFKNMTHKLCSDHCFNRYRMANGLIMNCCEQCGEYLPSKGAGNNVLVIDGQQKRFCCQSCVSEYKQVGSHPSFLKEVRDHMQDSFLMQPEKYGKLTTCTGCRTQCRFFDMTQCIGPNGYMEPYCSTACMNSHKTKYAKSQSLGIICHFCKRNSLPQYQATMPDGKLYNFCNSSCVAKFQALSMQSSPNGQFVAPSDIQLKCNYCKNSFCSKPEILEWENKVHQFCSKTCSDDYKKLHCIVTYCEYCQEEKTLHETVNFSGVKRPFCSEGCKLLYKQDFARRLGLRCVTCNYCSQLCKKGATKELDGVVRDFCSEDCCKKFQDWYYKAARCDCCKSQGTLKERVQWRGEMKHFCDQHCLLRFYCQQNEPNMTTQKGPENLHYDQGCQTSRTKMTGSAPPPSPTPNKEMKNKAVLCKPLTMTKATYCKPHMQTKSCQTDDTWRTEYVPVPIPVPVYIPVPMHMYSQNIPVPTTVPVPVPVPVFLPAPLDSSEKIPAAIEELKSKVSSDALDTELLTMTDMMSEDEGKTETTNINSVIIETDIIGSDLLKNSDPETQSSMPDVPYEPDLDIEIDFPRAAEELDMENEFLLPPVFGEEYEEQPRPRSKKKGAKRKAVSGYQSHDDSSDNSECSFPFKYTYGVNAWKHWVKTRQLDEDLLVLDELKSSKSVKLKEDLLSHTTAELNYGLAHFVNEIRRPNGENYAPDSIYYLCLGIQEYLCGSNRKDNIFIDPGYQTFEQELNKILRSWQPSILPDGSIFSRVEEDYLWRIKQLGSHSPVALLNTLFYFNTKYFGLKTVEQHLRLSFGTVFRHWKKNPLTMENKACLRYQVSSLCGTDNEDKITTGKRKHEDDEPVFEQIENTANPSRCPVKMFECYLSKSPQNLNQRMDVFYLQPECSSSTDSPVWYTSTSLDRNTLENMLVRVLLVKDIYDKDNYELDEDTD
UniProt Q9ULU4: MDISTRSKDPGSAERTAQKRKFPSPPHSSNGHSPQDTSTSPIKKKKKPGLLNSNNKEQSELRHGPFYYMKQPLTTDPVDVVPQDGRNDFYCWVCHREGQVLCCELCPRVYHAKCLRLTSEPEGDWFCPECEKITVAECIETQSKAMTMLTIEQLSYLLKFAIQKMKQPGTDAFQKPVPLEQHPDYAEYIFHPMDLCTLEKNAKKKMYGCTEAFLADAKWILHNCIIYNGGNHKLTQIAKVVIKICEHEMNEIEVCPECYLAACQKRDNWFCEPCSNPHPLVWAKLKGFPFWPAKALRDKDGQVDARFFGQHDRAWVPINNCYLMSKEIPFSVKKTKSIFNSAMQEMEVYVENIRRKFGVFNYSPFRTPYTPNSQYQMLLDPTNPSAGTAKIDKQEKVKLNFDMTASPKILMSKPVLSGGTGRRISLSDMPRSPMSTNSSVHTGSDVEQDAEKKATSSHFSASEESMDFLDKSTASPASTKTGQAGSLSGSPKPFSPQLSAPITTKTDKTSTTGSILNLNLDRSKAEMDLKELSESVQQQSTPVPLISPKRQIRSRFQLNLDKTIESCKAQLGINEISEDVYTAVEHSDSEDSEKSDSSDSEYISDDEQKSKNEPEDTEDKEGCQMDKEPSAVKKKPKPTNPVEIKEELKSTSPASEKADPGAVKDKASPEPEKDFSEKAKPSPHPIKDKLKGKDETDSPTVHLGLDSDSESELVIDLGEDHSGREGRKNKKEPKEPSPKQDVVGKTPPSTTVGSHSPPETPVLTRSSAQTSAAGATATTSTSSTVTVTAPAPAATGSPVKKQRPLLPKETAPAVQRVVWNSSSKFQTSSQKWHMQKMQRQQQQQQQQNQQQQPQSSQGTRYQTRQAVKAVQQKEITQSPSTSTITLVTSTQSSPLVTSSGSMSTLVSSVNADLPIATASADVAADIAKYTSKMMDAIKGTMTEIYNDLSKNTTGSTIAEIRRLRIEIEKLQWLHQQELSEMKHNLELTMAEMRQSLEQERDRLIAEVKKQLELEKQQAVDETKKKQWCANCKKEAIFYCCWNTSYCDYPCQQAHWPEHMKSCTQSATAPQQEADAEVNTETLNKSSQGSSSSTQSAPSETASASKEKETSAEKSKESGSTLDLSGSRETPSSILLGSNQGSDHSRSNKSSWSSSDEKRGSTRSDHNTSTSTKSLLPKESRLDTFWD
UniProt Q86UK7: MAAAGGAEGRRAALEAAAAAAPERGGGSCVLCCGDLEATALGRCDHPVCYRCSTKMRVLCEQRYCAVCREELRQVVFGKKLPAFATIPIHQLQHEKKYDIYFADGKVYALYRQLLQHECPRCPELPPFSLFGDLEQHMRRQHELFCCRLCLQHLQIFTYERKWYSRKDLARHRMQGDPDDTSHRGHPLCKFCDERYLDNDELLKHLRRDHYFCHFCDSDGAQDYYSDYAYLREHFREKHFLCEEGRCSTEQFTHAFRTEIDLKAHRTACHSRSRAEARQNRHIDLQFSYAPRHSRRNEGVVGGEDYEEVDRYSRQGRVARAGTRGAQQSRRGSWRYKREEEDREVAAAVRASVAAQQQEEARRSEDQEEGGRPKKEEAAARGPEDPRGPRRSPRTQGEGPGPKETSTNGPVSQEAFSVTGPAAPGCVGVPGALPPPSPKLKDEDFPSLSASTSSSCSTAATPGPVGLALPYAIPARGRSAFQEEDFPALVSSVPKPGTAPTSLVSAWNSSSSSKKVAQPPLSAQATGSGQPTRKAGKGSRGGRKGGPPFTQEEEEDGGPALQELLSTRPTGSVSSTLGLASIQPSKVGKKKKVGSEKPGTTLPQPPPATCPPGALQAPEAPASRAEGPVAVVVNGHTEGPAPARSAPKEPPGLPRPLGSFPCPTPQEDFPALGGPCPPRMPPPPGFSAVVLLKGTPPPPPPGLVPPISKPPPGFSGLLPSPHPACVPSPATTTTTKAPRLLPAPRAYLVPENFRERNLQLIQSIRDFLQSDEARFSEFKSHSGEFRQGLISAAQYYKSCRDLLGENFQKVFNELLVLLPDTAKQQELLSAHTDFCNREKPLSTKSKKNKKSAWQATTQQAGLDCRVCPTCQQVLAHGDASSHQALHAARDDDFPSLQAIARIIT
UniProt Q8N1G0: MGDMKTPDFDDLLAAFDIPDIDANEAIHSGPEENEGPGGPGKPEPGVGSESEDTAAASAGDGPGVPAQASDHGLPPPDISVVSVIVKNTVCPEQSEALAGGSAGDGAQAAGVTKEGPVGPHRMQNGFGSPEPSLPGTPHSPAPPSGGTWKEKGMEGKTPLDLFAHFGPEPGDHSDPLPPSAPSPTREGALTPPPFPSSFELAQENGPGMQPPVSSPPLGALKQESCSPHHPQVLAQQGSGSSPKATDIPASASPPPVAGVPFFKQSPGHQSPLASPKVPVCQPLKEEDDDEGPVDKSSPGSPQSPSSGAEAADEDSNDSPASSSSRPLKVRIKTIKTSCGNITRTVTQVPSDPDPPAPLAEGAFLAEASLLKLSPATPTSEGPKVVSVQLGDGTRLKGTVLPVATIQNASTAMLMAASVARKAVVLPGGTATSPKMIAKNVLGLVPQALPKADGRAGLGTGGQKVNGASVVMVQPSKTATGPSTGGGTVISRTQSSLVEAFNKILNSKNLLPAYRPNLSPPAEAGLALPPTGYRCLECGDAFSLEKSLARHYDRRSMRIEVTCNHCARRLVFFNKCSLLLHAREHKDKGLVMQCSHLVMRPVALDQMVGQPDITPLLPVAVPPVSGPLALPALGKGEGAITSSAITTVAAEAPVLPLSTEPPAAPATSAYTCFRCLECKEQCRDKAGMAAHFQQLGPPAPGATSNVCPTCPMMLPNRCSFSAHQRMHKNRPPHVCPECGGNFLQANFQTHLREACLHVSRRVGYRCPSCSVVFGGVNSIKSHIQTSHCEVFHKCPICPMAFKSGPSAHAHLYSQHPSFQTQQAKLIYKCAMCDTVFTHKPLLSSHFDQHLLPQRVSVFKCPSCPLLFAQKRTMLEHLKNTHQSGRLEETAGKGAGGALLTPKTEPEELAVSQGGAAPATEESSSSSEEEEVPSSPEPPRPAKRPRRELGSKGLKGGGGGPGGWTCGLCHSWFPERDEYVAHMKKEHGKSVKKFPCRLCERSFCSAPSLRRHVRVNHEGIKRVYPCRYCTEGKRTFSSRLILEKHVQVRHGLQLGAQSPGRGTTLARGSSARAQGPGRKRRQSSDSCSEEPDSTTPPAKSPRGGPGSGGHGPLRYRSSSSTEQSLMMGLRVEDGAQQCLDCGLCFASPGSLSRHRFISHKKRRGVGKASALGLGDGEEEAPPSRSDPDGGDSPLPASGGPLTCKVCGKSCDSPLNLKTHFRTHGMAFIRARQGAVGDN
UniProt Q9H582: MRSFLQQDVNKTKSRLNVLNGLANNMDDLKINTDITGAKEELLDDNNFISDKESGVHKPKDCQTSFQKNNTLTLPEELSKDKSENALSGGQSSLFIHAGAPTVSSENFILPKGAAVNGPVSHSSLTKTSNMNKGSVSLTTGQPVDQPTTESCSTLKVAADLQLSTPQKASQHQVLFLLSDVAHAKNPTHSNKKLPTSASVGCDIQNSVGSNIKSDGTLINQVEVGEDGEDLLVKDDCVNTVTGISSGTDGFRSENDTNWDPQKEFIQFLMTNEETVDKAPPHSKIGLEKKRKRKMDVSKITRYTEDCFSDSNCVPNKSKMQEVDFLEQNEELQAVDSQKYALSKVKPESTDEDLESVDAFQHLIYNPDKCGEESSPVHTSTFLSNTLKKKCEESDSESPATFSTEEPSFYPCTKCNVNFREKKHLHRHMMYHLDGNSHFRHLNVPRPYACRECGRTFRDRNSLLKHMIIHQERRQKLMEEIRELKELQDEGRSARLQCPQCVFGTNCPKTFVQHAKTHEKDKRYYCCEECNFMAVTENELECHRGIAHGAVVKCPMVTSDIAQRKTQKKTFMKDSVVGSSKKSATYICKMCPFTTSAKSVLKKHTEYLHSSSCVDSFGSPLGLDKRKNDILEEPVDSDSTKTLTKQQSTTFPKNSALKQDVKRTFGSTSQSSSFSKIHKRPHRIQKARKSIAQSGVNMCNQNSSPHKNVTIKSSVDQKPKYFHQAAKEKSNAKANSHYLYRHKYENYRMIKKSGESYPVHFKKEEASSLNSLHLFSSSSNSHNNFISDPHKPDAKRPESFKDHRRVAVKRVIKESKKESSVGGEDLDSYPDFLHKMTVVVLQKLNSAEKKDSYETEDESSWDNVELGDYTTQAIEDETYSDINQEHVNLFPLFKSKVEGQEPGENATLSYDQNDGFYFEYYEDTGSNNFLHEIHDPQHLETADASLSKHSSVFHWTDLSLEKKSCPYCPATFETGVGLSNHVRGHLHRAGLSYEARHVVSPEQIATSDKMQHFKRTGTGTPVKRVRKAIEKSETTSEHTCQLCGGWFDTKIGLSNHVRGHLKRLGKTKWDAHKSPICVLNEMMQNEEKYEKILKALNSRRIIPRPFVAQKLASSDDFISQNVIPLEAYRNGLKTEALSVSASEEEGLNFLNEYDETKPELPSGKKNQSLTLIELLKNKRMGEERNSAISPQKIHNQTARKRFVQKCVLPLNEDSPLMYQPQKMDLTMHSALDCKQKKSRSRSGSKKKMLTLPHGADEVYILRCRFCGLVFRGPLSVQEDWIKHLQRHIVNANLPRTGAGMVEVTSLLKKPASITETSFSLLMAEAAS

Row | Target | probe-labelled cysteine peptide fold change (10 µM) | probe-labelled cysteine peptide fold change (50 µM)
1 | ZFX_P17010_664_CDMCDK (UniProt P17010) | 0.213 | 0.0294
2 | ZFYVE27_Q5T4F4_353_RYPTNNFGNCTGCSATFSVLK (UniProt Q5T4F4) | -0.216 | -0.378
3 | ZMYM3_Q14202_1197_VEEEHLWECK (UniProt Q14202) | 0.148 | -0.0344
4 | ZMYM3_Q14202_1048_LVLSESCSR (UniProt Q14202) | -0.00773 | -0.0329
5 | ZNF330_Q9Y3S2_67+70_LPICAQCGK (UniProt Q9Y3S2) | -0.0938 | -0.949
6 | ZNF316_A6NFI3_861_CADCGR (UniProt A6NFI3) | 0.394 | 0.501
7 | ZFYVE21_Q9BQ24_99_QCAECALVSLK (UniProt Q9BQ24) | -0.0573 | -0.384
8 | ZMYM3_Q14202_747_HFCNQQCLLR (UniProt Q14202) | 0.0032 | -0.384
9 | ZNF330_Q9Y3S2_120+122_CLSTHACACPLTDAECVECER (UniProt Q9Y3S2) | 0.16 | -0.138
10 | ZNF668_Q96K58_198_THAGLRPYSCER (UniProt Q96K58) | 0.165 | -0.0308
11 | ZFP91_Q96JP5_182_TGSLQLICK (UniProt Q96JP5) | -0.314 | -0.272
12 | ZNF22_P17026_113_CDECGESFK (UniProt P17026) | 0.124 | 0.512
13 | ZNF224_Q9NZL3_132_EGDFPCQTEAGLSVIHTR (UniProt Q9NZL3) | 0.328 | 0.0536
14 | ZNF524_Q96C55_161_HCNIHAGLRPFR (UniProt Q96C55) | 0.113 | -0.229
15 | ZNF124_Q15973_245_AFSCLSSLQGHIK (UniProt Q15973) | 0.0531 | -0.298
16 | ZFYVE16_Q7Z3T8_1174_LDDLSLPSNPFLCGILIQK (UniProt Q7Z3T8) | 0.283 | 0.682
17 | ZNF267_Q14586_218_NYHCNNSEK (UniProt Q14586) | -0.113 | -0.426
18 | ZMYM2_Q9UBW7_608_LYNFCNSSCVAK (UniProt Q9UBW7) | -0.186 | -1.35
19 | ZNF106_Q9H2Y7_1853_NCDAFFTAR (UniProt Q9H2Y7) | -0.0368 | 0.278
20 | ZFP91_Q96JP5_520_SYCSGTER (UniProt Q96JP5) | -0.138 | -0.0667
21 | ZMYND8_Q9ULU4_106_EGQVLCCELCPR (UniProt Q9ULU4) | 0.0622 | 0.211
22 | ZNF638_Q14966_652_NLEDDTLSECK (UniProt Q14966) | -0.255 | -0.0904

Row | Target | probe-labelled cysteine peptide fold change (10 µM) | probe-labelled cysteine peptide fold change (50 µM)
23 | ZNF217_O75362_641_SAVETQANNLICR (UniProt O75362) | -0.181 | -0.0706
24 | ZNF326_Q5BKZ1_360_VVMEFLHECMVNK (UniProt Q5BKZ1) | 0.097 | 0.106
25 | ZMYND11_Q15326_73_DGLIVETLTVGCK (UniProt Q15326) | -0.167 | -0.446
26 | ZFR_Q96KR1_391_CELCDVSCTGADAYAAHIR (UniProt Q96KR1) | 0.0706 | 0.173
27 | ZNF622_Q969S3_69_GSATYCTVCSK (UniProt Q969S3) | 0.0399 | -0.0288
28 | ZNF598_Q86UK7_247_CSTEQFTHAFR (UniProt Q86UK7) | 0.127 | -0.15
29 | ZNF318_Q5VUA4_1071_DCNTICGTMFDFFTHMHNK (UniProt Q5VUA4) | 0.0242 | -0.00749
30 | ZFP91_Q96JP5_313_CEMEGCGTVLAHPR (UniProt Q96JP5) | 0.0458 | 0.0552
31 | ZNF106_Q9H2Y7_457_SPLLPCPATK (UniProt Q9H2Y7) | -0.342 | -0.491
32 | ZNF592_Q92610_463_ASDSSSPSCSSGPR (UniProt Q92610) | -0.143 | -0.425
33 | ZNF106_Q9H2Y7_1653_RLEIFECHGPR (UniProt Q9H2Y7) | -0.17 | 0.17
34 | ZNF330_Q9Y3S2_109_HAGVYSTGLAMVGAICDFCEAWVCHGR (UniProt Q9Y3S2) | 0.111 | 0.315
35 | ZNF638_Q14966_1947_AMTNHCK (UniProt Q14966) | -0.149 | -0.155
36 | ZNF516_Q92618_1016_TLATCAAGSR (UniProt Q92618) | -0.106 | -0.458
37 | ZNF106_Q9H2Y7_1576_VNCLLVTQTSGK (UniProt Q9H2Y7) | 0.11 | 0.282
38 | ZMYM3_Q14202_484_FCNTTCLGAYK (UniProt Q14202) | -0.138 | -0.789
39 | ZNF579_Q8NAF0_443_HAQVHAGGPAPHPCPR (UniProt Q8NAF0) | 0.341 | 0.533
40 | ZNF451_Q9Y4E5_364+367_GYCPDCNQVFVDETSTQNHK (UniProt Q9Y4E5) | -0.298 | -0.0836
41 | ZNF280D_Q6N043_630_CIECCSEIK (UniProt Q6N043) | 0.0174 | 0.255
42 | ZNF687_Q8N1G0_1003_SFCSAPSLR (UniProt Q8N1G0) | -0.121 | 0.0011
43 | ZFYVE1_Q9HBF4_45_CEEELHRQER (UniProt Q9HBF4) | 0.0583 | -0.322
44 | ZMYM3_Q14202_633+636_GVVSQCEHCR (UniProt Q14202) | 0.0381 | -0.705

Row | Target | probe-labelled cysteine peptide fold change (10 µM) | probe-labelled cysteine peptide fold change (50 µM)
45 | ZNF512B_Q96KM6_774_AHLASCSK (UniProt Q96KM6) | 0.143 | -0.0282
46 | ZMIZ2_Q8NF64_564_LLPAEHCITK (UniProt Q8NF64) | -0.0415 | -0.113
47 | ZFR_Q96KR1_387+391_CELCDVSCTGADAYAAHIR (UniProt Q96KR1) | 0.0131 | 0.224
48 | ZNF687_Q8N1G0_860_CPSCPLLFAQK (UniProt Q8N1G0) | 0.0798 | 0.0741
49 | ZKSCAN1_P17029_63_FCYQNTFGPR (UniProt P17029) | 0.0325 | -0.0499
50 | ZFR_Q96KR1_5_MIPICPVVSFTYVPSR (UniProt Q96KR1) | 0.283 | 0.236
51 | ZNF687_Q8N1G0_576_CSLLLHAR (UniProt Q8N1G0) | -0.0325 | 0.126
52 | ZNF330_Q9Y3S2_216_CGHETQETK (UniProt Q9Y3S2) | 0.0434 | -0.167
53 | ZFPL1_O95159_24_VNVCEHCLVANHAK (UniProt O95159) | -0.0025 | -0.113
54 | ZNF451_Q9Y4E5_476_TWFCECNQR (UniProt Q9Y4E5) | 0.0139 | 0.0709
55 | ZNF598_Q86UK7_122_CPELPPFSLFGDLEQHMR (UniProt Q86UK7) | -0.306 | -0.388
56 | ZNF598_Q86UK7_867_VCPTCQQVLAHGDASSHQALHAAR (UniProt Q86UK7) | 0.228 | 0.187
57 | ZNF330_Q9Y3S2_114_CLSTHACACPLTDAECVECER (UniProt Q9Y3S2) | 0.172 | 0.0269
58 | ZNF670_Q9BS34_114_VFICHSALHR (UniProt Q9BS34) | -0.237 | -0.962
59 | ZMYM1_Q5SVZ6_532_EYQFCDGAVSDDLSIHSK (UniProt Q5SVZ6) | -0.52 | -0.546
60 | ZNF24_P17028_233_YGETCFPK (UniProt P17028) | -0.021 | -0.211
61 | ZNF330_Q9Y3S2_132_CLSTHACACPLTDAECVECER (UniProt Q9Y3S2) | 0.0165 | 0.0302
62 | ZFYVE19_Q96K21_435_CAGCDGDLFCAR (UniProt Q96K21) | 0.0027 | -0.124
63 | ZNF638_Q14966_688_EQSLHYGSVLLITELPEDGCTEEDVR (UniProt Q14966) | 0.0192 | 0.11
64 | ZNF746_Q6NUN9_518_CFTRPAHLIR (UniProt Q6NUN9) | 0.201 | -0.0967
65 | ZNF598_Q86UK7_119_QLLQHECPR (UniProt Q86UK7) | -0.206 | -0.265
66 | ZNF292_O60281_2260_CDCEGCDR (UniProt O60281) | 0.0987 | 0.272

Row | Target | probe-labelled cysteine peptide fold change (10 µM) | probe-labelled cysteine peptide fold change (50 µM)
67 | ZNF512_Q96ME7_324_SEHGPISFFPESGQPECLK (UniProt Q96ME7) | 0.231 | -0.00904
68 | ZMYM2_Q9UBW7_872_SCQTDDTWR (UniProt Q9UBW7) | -0.203 | -0.257
69 | ZNF644_Q9H582_152_GSVSLTTGQPVDQPTTESCSTLK (UniProt Q9H582) | -0.148 | -0.122
70 | ZFR_Q96KR1_333_QPPKPPQIHYCDVCK (UniProt Q96KR1) | 0.388 | 0.0938
71 | ZNF692_Q9BU19_366_SFSCPEPACGK (UniProt Q9BU19) | 0.162 | 0.163
72 | ZMYM4_Q5VZL5_1499_SCVPNSPMWYSTFPIDPGTLDTMLTR (UniProt Q5VZL5) | -0.668 | -0.33
73 | ZFR_Q96KR1_812_NVNLVLLCSEK (UniProt Q96KR1) | -0.121 | 0.402
74 | ZFYVE19_Q96K21_104_AFCSGCLSFSAAVPR (UniProt Q96K21) | 0.0225 | -0.179
75 | ZNF330_Q9Y3S2_194_ACFCDDHTR (UniProt Q9Y3S2) | 0.0104 | -0.13
76 | ZNF649_Q9BS31_183_AHECTDCGK (UniProt Q9BS31) | 0.185 | 0.0149
77 | ZNF451_Q9Y4E5_176_GGHTWVSGKPILCPIMHCNK (UniProt Q9Y4E5) | -0.0384 | -0.279
78 | ZNF280C_Q8ND82_94_CRDPPSNPVAASPR (UniProt Q8ND82) | -0.112 | -0.00969
79 | ZNF692_Q9BU19_235_LLPSPVTCTPK (UniProt Q9BU19) | -0.333 | -0.498
80 | ZMYND8_Q9ULU4_91_NDFYCWVCHR (UniProt Q9ULU4) | 0.0594 | -0.0329
81 | ZNF644_Q9H582_202_KLPTSASVGCDIQNSVGSNIK (UniProt Q9H582) | -0.312 | -0.167
82 | ZNF124_Q15973_292+295_THIAQKPYVCNNCGK (UniProt Q15973) | -0.0537 | -0.431
83 | ZMYND8_Q9ULU4_567_TIESCK (UniProt Q9ULU4) | -0.0635 | -0.282
84 | ZFYVE21_Q9BQ24_138_VLLSGATFLVTFGNSEKPETMTCR (UniProt Q9BQ24) | -0.205 | -0.209
85 | ZNF318_Q5VUA4_1363_SCSATMSK (UniProt Q5VUA4) | -0.204 | -0.789
86 | ZFR_Q96KR1_384_CELCDVSCTGADAYAAHIR (UniProt Q96KR1) | -0.0197 | 0.596

Source: the supplement of paper PMC12067093, “Discovery and optimisation of a covalent ligand for TRIM25 and its application to targeted protein ubiquitination” (Chemical Science, 2025)
